In paper PMC12085017:
Results are given in words; binding and its absence hold for the method and conditions named. In cells and extracts the contact can be indirect. Some entries that bind do so weakly or less than the wild type.

Target: voltage-dependent anion channel 1 (human (endogenous in PANC-1)), P21796
Experiment: co-IP; protein extracts from PANC-1 cells; Pierce crosslinking magnetic IP/Co-IP kit; cells treated with or without Pt@PCN-Cu
Conditions: remark: other sources report otherwise

binding: binds
B1: hexokinase 2, P52789 1-917 (protein)
chain: MIASHLLAYFFTELNHDQVQKVDQYLYHMRLSDETLLEISKRFRKEMEKGLGATTHPTAAVKMLPTFVRSTPDGTEHGEFLALDLGGTNFRVLWVKVTDNGLQKVEMENQIYAIPEDIMRGSGTQLFDHIAECLANFMDKLQIKDKKLPLGFTFSFPCHQTKLDESFLVSWTKGFKSSGVEGRDVVALIRKAIQRRGDFDIDIVAVVNDTVGTMMTCGYDDHNCEIGLIVGTGSNACYMEEMRHIDMVEGDEGRMCINMEWGAFGDDGSLNDIRTEFDQEIDMGSLNPGKQLFEKMISGMYMGELVRLILVKMAKEELLFGGKLSPELLNTGRFETKDISDIEGEKDGIRKAREVLMRLGLDPTQEDCVATHRICQIVSTRSASLCAATLAAVLQRIKENKGEERLRSTIGVDGSVYKKHPHFAKRLHKTVRRLVPGCDVRFLRSEDGSGKGAAMVTAVAYRLADQHRARQKTLEHLQLSHDQLLEVKRRMKVEMERGLSKETHASAPVKMLPTYVCATPDGTEKGDFLALDLGGTNFRVLLVRVRNGKWGGVEMHNKIYAIPQEVMHGTGDELFDHIVQCIADFLEYMGMKGVSLPLGFTFSFPCQQNSLDESILLKWTKGFKASGCEGEDVVTLLKEAIHRREEFDLDVVAVVNDTVGTMMTCGFEDPHCEVGLIVGTGSNACYMEEMRNVELVEGEEGRMCVNMEWGAFGDNGCLDDFRTEFDVAVDELSLNPGKQRFEKMISGMYLGEIVRNILIDFTKRGLLFRGRISERLKTRGIFETKFLSQIESDCLALLQVRAILQHLGLESTCDDSIIVKEVCTVVARRAAQLCGAGMAAVVDRIRENRGLDALKVTVGVDGTLYKLHPHFAKVMHETVKDLAPKCDVSFLQSEDGSGKGAALITAVACRIREAGQR
